One assay concerns the target mGFP–WDR34 (human) (UniProt Q96EX3). Nature of the assay: affinity purification with mass spectrometry; GFP nano-trap beads with lysates of serum-starved (24 h) hTERT-RPE1 cells stably expressing mGFP or mGFP–WDR34; 10 mM Tris-HCl pH 7.4, 50 mM NaCl, 0.5 mM EDTA, 1.0% IGEPAL lysis; 2 h at 4°C; interactome compared with that of mGFP.
The target of assay [1] is T1, mGFP–WDR34 (human), Q96EX3.
T1 chain: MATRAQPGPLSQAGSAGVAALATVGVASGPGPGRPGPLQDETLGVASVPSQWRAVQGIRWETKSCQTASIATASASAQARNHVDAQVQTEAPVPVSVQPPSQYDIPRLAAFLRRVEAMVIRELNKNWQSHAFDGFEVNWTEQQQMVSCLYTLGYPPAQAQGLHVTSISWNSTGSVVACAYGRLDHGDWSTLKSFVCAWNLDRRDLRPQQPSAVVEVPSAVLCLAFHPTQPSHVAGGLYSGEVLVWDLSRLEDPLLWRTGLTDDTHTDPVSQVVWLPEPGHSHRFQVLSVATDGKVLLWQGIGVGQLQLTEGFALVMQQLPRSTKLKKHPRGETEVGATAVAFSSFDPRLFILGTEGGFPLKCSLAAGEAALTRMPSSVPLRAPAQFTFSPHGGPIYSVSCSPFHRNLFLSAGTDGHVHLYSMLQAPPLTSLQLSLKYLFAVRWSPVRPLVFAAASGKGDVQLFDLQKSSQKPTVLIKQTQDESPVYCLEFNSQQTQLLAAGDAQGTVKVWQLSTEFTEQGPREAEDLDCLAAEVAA
Described as above. The settings on record: remark: other sources report otherwise.

Protein sequences, listed by entry. Tags and fused reporters are not part of them.
UniProt Q9Y266: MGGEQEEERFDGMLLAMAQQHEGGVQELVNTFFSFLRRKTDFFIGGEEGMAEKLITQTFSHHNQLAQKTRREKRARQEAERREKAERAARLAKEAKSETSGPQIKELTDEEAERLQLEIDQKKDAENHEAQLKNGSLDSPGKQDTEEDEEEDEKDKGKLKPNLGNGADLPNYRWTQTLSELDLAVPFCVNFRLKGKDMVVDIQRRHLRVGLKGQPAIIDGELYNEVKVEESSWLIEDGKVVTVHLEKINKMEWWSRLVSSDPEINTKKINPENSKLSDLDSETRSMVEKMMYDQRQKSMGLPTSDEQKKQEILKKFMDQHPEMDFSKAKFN
UniProt Q8WW35: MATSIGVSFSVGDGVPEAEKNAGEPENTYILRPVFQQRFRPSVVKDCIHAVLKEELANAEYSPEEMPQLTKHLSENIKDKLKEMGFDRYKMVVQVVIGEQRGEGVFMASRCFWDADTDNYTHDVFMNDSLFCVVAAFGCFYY
UniProt Q8NCM8: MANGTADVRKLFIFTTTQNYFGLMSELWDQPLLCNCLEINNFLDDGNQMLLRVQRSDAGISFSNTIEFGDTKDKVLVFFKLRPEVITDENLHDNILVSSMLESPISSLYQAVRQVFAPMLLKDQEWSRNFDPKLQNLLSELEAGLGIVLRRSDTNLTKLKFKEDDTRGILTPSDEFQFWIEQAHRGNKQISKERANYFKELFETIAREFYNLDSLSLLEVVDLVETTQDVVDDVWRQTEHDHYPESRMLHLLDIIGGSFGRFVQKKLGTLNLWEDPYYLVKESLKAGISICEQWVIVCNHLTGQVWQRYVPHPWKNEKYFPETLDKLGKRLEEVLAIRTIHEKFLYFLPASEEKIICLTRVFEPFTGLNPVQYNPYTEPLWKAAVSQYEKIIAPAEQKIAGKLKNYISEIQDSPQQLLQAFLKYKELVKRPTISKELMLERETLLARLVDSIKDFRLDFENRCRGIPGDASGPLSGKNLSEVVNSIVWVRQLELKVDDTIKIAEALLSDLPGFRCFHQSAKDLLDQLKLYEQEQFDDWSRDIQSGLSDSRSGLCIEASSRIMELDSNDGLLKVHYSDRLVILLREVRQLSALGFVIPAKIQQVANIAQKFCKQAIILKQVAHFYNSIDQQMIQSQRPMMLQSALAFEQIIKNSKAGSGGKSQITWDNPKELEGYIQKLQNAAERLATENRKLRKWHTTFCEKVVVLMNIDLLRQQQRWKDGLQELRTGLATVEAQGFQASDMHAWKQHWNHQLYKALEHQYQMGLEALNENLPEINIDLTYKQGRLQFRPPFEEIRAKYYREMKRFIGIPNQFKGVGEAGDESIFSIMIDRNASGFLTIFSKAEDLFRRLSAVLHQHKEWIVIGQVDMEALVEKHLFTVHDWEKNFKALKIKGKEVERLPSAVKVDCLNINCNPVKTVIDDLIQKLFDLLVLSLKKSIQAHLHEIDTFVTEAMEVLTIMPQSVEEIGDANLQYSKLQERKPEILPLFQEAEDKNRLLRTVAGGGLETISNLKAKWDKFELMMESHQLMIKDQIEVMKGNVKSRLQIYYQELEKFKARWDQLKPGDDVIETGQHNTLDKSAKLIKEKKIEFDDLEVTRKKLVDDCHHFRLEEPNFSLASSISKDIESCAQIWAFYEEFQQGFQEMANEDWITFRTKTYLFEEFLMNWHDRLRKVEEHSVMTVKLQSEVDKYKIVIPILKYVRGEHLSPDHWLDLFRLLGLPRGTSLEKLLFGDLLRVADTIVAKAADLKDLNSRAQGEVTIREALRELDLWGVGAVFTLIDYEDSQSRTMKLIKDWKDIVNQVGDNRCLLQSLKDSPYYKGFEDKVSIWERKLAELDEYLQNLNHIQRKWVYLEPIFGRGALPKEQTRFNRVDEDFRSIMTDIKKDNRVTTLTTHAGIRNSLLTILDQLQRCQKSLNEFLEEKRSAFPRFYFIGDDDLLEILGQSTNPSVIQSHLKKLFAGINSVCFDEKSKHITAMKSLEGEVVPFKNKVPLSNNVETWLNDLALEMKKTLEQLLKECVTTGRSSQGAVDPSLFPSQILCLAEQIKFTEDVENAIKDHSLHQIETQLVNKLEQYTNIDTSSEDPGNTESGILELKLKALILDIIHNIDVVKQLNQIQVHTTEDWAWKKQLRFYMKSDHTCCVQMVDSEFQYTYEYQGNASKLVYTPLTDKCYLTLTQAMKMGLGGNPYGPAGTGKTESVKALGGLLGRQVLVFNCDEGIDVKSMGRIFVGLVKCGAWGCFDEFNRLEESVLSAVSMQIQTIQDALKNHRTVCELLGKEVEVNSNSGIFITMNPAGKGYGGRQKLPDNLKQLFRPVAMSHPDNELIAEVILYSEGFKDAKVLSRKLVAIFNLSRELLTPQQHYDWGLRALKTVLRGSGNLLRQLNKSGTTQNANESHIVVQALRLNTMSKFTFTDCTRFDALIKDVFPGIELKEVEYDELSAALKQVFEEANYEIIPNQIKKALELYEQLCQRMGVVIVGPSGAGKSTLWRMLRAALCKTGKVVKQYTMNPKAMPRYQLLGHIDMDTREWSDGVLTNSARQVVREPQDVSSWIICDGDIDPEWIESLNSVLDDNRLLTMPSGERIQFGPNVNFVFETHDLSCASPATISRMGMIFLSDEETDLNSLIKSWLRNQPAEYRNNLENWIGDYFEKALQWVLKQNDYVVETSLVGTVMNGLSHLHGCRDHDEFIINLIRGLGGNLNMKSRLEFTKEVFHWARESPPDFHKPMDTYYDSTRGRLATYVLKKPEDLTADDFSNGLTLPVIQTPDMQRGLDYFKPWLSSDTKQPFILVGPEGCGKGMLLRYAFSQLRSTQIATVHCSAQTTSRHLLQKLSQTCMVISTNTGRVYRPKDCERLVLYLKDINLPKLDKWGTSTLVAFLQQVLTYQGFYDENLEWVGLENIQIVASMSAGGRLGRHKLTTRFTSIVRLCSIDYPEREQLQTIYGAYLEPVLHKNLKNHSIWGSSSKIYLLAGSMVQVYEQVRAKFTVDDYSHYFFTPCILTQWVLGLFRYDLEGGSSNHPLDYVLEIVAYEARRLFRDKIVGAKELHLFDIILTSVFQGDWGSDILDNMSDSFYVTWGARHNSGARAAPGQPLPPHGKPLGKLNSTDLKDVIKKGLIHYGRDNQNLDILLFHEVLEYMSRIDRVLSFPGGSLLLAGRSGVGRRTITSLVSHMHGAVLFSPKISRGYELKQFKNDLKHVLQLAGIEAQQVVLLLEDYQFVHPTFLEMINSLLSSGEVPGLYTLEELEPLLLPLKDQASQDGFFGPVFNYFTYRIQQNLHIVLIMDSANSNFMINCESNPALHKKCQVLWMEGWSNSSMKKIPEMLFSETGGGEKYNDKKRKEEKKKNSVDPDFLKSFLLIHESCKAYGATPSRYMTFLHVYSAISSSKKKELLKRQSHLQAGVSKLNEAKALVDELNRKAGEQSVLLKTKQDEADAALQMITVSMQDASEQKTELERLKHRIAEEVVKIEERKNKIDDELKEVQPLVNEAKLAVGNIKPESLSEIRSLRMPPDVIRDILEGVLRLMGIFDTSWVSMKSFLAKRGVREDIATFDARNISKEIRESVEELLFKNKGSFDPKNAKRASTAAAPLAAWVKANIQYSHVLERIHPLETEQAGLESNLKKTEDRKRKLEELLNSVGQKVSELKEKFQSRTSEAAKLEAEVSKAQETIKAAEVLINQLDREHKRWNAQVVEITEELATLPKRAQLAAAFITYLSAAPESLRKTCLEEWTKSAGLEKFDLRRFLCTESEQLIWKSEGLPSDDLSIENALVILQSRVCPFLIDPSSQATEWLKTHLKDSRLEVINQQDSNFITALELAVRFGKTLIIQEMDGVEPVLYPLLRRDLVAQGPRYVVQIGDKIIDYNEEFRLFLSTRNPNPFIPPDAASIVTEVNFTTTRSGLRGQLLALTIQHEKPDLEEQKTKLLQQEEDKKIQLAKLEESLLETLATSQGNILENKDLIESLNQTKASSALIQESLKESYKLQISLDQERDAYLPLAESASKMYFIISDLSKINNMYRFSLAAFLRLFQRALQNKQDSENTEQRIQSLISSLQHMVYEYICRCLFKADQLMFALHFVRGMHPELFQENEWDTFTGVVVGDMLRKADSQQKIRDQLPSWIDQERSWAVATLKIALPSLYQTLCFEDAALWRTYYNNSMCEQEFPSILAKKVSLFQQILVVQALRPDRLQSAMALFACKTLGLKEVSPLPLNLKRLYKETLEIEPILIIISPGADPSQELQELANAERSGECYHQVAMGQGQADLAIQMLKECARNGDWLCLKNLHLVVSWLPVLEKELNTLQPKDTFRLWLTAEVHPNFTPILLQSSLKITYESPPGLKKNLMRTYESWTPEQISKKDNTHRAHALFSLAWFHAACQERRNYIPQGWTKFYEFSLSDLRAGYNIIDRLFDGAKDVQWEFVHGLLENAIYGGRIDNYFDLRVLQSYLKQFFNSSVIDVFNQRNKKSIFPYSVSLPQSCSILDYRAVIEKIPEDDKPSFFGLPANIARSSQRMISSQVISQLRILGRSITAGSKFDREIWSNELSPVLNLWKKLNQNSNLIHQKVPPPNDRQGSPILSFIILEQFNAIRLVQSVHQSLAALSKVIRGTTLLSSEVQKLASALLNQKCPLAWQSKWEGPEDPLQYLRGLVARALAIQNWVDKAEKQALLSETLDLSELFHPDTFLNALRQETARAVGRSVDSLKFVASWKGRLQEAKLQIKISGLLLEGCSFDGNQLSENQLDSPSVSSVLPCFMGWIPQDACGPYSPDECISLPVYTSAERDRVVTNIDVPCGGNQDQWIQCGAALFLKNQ
UniProt Q8TCX1: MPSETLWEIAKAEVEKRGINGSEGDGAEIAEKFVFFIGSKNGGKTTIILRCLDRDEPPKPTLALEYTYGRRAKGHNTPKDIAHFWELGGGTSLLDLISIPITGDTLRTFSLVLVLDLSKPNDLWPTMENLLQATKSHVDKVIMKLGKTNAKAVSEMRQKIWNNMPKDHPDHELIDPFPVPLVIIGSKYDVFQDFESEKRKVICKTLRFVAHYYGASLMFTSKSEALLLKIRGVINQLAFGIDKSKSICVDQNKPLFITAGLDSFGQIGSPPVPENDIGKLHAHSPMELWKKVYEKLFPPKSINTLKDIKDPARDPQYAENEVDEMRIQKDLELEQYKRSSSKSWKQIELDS
UniProt P63167: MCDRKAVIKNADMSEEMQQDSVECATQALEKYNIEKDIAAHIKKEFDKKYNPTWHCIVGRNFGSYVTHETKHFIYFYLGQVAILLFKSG
UniProt P63172: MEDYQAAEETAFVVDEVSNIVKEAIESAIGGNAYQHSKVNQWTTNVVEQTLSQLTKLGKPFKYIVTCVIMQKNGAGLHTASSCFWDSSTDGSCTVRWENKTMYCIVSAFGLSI
UniProt Q9NP97: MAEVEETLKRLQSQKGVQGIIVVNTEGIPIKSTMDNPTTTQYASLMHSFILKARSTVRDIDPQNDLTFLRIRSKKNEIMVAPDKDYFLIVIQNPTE
UniProt Q8WVS4: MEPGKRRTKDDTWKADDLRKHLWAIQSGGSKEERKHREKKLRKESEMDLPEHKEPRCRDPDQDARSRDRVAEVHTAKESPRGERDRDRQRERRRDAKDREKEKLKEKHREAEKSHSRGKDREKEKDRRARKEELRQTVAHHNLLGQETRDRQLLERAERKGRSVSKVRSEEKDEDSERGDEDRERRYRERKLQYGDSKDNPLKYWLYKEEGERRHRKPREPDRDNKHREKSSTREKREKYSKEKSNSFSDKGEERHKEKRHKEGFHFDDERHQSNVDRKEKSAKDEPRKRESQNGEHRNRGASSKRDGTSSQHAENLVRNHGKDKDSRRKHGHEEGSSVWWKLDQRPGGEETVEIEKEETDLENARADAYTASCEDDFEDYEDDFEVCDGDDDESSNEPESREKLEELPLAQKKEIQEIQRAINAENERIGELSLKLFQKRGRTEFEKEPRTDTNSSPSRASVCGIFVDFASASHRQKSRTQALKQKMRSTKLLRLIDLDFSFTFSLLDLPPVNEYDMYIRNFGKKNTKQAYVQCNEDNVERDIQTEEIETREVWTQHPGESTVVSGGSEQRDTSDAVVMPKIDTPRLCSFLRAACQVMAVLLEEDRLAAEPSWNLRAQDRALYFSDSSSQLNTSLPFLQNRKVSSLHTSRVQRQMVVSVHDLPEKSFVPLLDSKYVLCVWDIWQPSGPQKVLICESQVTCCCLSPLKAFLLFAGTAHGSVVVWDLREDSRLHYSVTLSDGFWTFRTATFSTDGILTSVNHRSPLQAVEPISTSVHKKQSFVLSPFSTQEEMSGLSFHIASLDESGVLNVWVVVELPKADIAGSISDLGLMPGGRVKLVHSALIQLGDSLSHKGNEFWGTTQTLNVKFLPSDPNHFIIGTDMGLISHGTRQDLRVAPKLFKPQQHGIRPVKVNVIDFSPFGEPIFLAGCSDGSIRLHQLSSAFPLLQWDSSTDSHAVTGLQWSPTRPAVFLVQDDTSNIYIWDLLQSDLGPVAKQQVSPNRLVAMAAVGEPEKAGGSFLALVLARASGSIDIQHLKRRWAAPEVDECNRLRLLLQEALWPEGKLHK

Results are given in words; binding and its absence hold for the method and conditions named. In cells and extracts the contact can be indirect. These calls come from enrichment with a bait or labelling near it, and not all partners need be listed. For some assays here: A no says only that the protein was not detected with the bait. For some assays here: Where a sequence is shown, tags or fusion partners need not be part of it.

For the molecule NudC (from UniProt Q9Y266 1-331), the binding entry in the assay with mGFP–WDR34 (human) is “binds”.
The same measure, in the same setting: the result for TCTEX1D2 (from UniProt Q8WW35 1-142) reads “binds”; that for “dynein-2 heavy chain (DYNC2H1) (from UniProt Q8NCM8 1-4307)”, “binds”.
With “dynein-2 light intermediate chain subunit DYNC2LI1/LIC3 (from UniProt Q8TCX1 1-351)”, the binding result with mGFP–WDR34 (human) is on record as “binds”.
Same read-out and setting: the result for LC8-1 (from UniProt P63167 1-89) reads “binds”; that for Tctex-1 (from UniProt P63172 1-113), “binds”.
Turning to Bicaudal 2 (from UniProt Q8TD16 1-824), the binding result with mGFP–WDR34 (human) is listed as “no binding”.
Consider roadblock-1 (from UniProt Q9NP97 1-96), for which the binding entry with mGFP–WDR34 (human) is “binds”.
Regarding WDR60 (from UniProt Q8WVS4 1-1066), the binding entry with mGFP–WDR34 (human) was “binds”.

B1: Tctex-3, P51808 1-116 (protein)
chain: MEEYHRHCDEVGFNAEEAHNIVKECVDGVLGGEDYNHNNINQWTASIVEQSLTHLVKLGKAYKYIVTCAVVQKSAYGFHTASSCFWDTTSDGTCTVRWENRTMNCIVNVFAIAIVL
Take B1: in assay [1], the binding result is reported as “binds”.

B2: Nudel (protein, UniProt Q9GZM8 1-345)
chain: MDGEDIPDFSSLKEETAYWKELSLKYKQSFQEARDELVEFQEGSRELEAELEAQLVQAEQRNRDLQADNQRLKYEVEALKEKLEHQYAQSYKQVSVLEDDLSQTRAIKEQLHKYVRELEQANDDLERAKRATIVSLEDFEQRLNQAIERNAFLESELDEKESLLVSVQRLKDEARDLRQELAVRERQQEVTRKSAPSSPTLDCEKMDSAVQASLSLPATPVGKGTENTFPSPKAIPNGFGTSPLTPSARISALNIVGDLLRKVGALESKLAACRNFAKDQASRKSYISGNVNCGVLNGNGTKFSRSGHTSFFDKGAVNGFDPAPPPPGLGSSRPSSAPGMLPLSV
As for B2, the binding entry with mGFP–WDR34 (human) was “no binding”.

B3: bicaudal 1 (protein, UniProt Q96G01 1-975)
chain: MAAEEVLQTVDHYKTEIERLTKELTETTHEKIQAAEYGLVVLEEKLTLKQQYDELEAEYDSLKQELEQLKEAFGQSFSIHRKVAEDGETREETLLQESASKEAYYLGKILEMQNELKQSRAVVTNVQAENERLTAVVQDLKENNEMVELQRIRMKDEIREYKFREARLLQDYTELEEENITLQKLVSTLKQNQVEYEGLKHEIKRFEEETVLLNSQLEDAIRLKEIAEHQLEEALETLKNEREQKNNLRKELSQYISLNDNHISISVDGLKFAEDGSEPNNDDKMNGHIHGPLVKLNGDYRTPTLRKGESLNPVSDLFSELNISEIQKLKQQLMQVEREKAILLANLQESQTQLEHTKGALTEQHERVHRLTEHVNAMRGLQSSKELKAELDGEKGRDSGEEAHDYEVDINGLEILECKYRVAVTEVIDLKAEIKALKEKYNKSVENYTDEKAKYESKIQMYDEQVTSLEKTTKESGEKMAHMEKELQKMTSIANENHSTLNTAQDELVTFSEELAQLYHHVCLCNNETPNRVMLDYYRQSRVTRSGSLKGPDDPRGLLSPRLARRGVSSPVETRTSSEPVAKESTEASKEPSPTKTPTISPVITAPPSSPVLDTSDIRKEPMNIYNLNAIIRDQIKHLQKAVDRSLQLSRQRAAARELAPMIDKDKEALMEEILKLKSLLSTKREQIATLRAVLKANKQTAEVALANLKNKYENEKAMVTETMTKLRNELKALKEDAATFSSLRAMFATRCDEYVTQLDEMQRQLAAAEDEKKTLNTLLRMAIQQKLALTQRLEDLEFDHEQSRRSKGKLGKSKIGSPKVSGEASVTVPTIDTYLLHSQGPQTPNIRVSSGTQRKRQFSPSLCDQSRPRTSGASYLQNLLRVPPDPTSTESFLLKGPPSMSEFIQGHRLSKEKRLTVAPPDCQQPAASVPPQCSQLAGRQDCPTVSPDTALPEEQPHSSSQCAPLHCLSKPPHP
B3: in the assay with mGFP–WDR34 (human), the binding result was “no binding”.

B4: NudE (protein, UniProt Q9NXR1 1-335)
chain: MEDSGKTFSSEEEEANYWKDLAMTYKQRAENTQEELREFQEGSREYEAELETQLQQIETRNRDLLSENNRLRMELETIKEKFEVQHSEGYRQISALEDDLAQTKAIKDQLQKYIRELEQANDDLERAKRATIMSLEDFEQRLNQAIERNAFLESELDEKENLLESVQRLKDEARDLRQELAVQQKQEKPRTPMPSSVEAERTDTAVQATGSVPSTPIAHRGPSSSLNTPGSFRRGLDDSTGGTPLTPAARISALNIVGDLLRKVGALESKLASCRNLVYDQSPNRTGGPASGRSSKNRDGGERRPSSTSVPLGDKGLDTSCRWLSKSTTRSSSSC
For B4, in the assay with mGFP–WDR34 (human), the binding entry is “no binding”.

B5: NudCD3 (protein, UniProt Q8IVD9 1-361)
chain: METGAAELYDQALLGILQHVGNVQDFLRVLFGFLYRKTDFYRLLRHPSDRMGFPPGAAQALVLQVFKTFDHMARQDDEKRRQELEEKIRRKEEEEAKTVSAAAAEKEPVPVPVQEIEIDSTTELDGHQEVEKVQPPGPVKEMAHGSQEAEAPGAVAGAAEVPREPPILPRIQEQFQKNPDSYNGAVRENYTWSQDYTDLEVRVPVPKHVVKGKQVSVALSSSSIRVAMLEENGERVLMEGKLTHKINTESSLWSLEPGKCVLVNLSKVGEYWWNAILEGEEPIDIDKINKERSMATVDEEEQAVLDRLTFDYHQKLQGKPQSHELKVHEMLKKGWDAEGSPFRGQRFDPAMFNISPGAVQF
Take B5: the binding entry with mGFP–WDR34 (human) is on record as “binds”.

B6: LIS1 (protein, UniProt P43034 1-410)
chain: MVLSQRQRDELNRAIADYLRSNGYEEAYSVFKKEAELDVNEELDKKYAGLLEKKWTSVIRLQKKVMELESKLNEAKEEFTSGGPLGQKRDPKEWIPRPPEKYALSGHRSPVTRVIFHPVFSVMVSASEDATIKVWDYETGDFERTLKGHTDSVQDISFDHSGKLLASCSADMTIKLWDFQGFECIRTMHGHDHNVSSVAIMPNGDHIVSASRDKTIKMWEVQTGYCVKTFTGHREWVRMVRPNQDGTLIASCSNDQTVRVWVVATKECKAELREHEHVVECISWAPESSYSSISEATGSETKKSGKPGPFLLSGSRDKTIKMWDVSTGMCLMTLVGHDNWVRGVLFHSGGKFILSCADDKTLRVWDYKNKRCMKTLNAHEHFVTSLDFHKTAPYVVTGSVDQTVKVWECR
B6: in the assay with mGFP–WDR34 (human), the binding entry is listed as “no binding”.

B7: roadblock-2, Q8TF09 1-96 (protein)
chain: MAEVEETLKRIQSHKGVIGTMVVNAEGIPIRTTLDNSTTVQYAGLLHHLTMKAKSTVRDIDPQNDLTFLRIRSKKHEIMVAPDKEYLLIVIQNPCE
B7: the binding entry in assay [1] is “binds”.

B8: Spindly (protein, UniProt Q96EA4 1-605)
chain: MEADIITNLRCRLKEAEEERLKAAQYGLQLVESQNELQNQLDKCRNEMMTMTESYEQEKYTLQREVELKSRMLESLSCECEAIKQQQKMHLEKLEEQLSRSHGQEVNELKTKIEKLKVELDEARLSEKQLKHQVDHQKELLSCKSEELRVMSERVQESMSSEMLALQIELTEMESMKTTLKEEVNELQYRQEQLELLITNLMRQVDRLKEEKEEREKEAVSYYNALEKARVANQDLQVQLDQALQQALDPNSKGNSLFAEVEDRRAAMERQLISMKVKYQSLKKQNVFNREQMQRMKLQIATLLQMKGSQTEFEQQERLLAMLEQKNGEIKHLLGEIRNLEKFKNLYDSMESKPSVDSGTLEDNTYYTDLLQMKLDNLNKEIESTKGELSIQRMKALFESQRALDIERKLFANERCLQLSESENMKLRAKLDELKLKYEPEETVEVPVLKKRREVLPVDITTAKDACVNNSALGGEVYRLPPQKEETQSCPNSLEDNNLQLEKSVSIYTPVVSLSPHKNLPVDMQLKKEKKCVKLIGVPADAEALSERSGNTPNSPRLAAESKLQTEVKEGKETSSKLEKETCKKLHPILYVSSKSTPETQCPQQ
On to B8, for which, in the assay with mGFP–WDR34 (human), the binding entry is “no binding”.
